Data from paper PMC9452538 (Communications Biology, 2022).
Some peptides are written in HELM: one residue between dots, names in brackets for other building blocks, links after the first $. Ends that are not written are not given here.

Assay: peptide made by a vendor
Conditions: whole synthesis

Row | Substance | purity (crude or final not stated)
1 | AKKLCRILKKLCRI-NH2 | 96.36%
2 | LAKLCRILKKLCRI-NH2 | 99.65%
3 | LKALCRILKKLCRI-NH2 | 95.67%
4 | LKKACRILKKLCRI-NH2 | 96.46%
5 | LKKLCRI-NH2 | 96.69%
6 | LKKLCRIAKKLCRI-NH2 | 97.84%
7 | LKKLCRILAKLCRI-NH2 | 96.68%
8 | LKKLCRILKALCRI-NH2 | 95.14%
9 | LKKLCRILKKACRI-NH2 (cysteine pairing not given here) | 96.7%
10 | LKKLCRILKKLCAI-NH2 | 96.15%
11 | PEPTIDE1{L.K.K.L.C.R.I.L.K.K.L.A.R.I.[am]}$$$$V2.0 | 96.66%
